Source: PubChem BioAssay AID330 (DTP/NCI, 2004)
The list does not hold the whole screen: it is rich in T/C values a quarter to a half above the control, in often repeated tests (any T/C) and in doses without a T/C. Further doses and runs are listed elsewhere. T/C: endpoint of the treated group in % of that of the vehicle group. Some entries give survivors of the animals treated and no T/C: the source holds a T/C of zero for them, seemingly a mark for toxic or unscored doses. Some survivor counts are full or nearly so, which does not show that the dose was tolerated: the source hardly ever lists a survival T/C far under the control, and the zero likely stands for such cases as well. Counts of survivors are from the toxicity check (mostly the fifth day) where no day follows; animals may have died later. Schedules are NCI's codes, read here as Q, the interval in days (D) or hours (H), X, the number of doses. For survival time, the PubChem record calls one and a half times the control and up active, and a quarter to a half above the control has no call in these data; cut-offs in other NCI protocols can differ.

Tested on: P388 leukemia ip, CD2F1 mice, survival T/C
Experiment: NCI In Vivo Anticancer Drug Screen. Data for tumor model P388 Leukemia (intraperitoneal) in CD2F1 (CDF1) mice
Settings: T/C endpoint: median survival time, higher T/C = longer survival
[1] = dose: 400.0 mg/kg/injection, schedule: Q01DX001 (ip), vehicle: saline with Tween-80
[2] = dose: 200.0 mg/kg/injection, schedule: Q01DX009 (ip), vehicle: Klucel (hydroxypropylcellulose) (HPC)
[3] = dose: 60.0 mg/kg/injection, schedule: Q01DX005 (ip), vehicle: saline with Tween-80
[4] = dose: 120.0 mg/kg/injection, schedule: Q01DX005 (ip), vehicle: saline with Tween-80

Compound: CC(=O)c1ccc2c(c1)c1c(C)c3c[n+](C)ccc3c(C)c1n2C
- T/C (dose: 100.0 mg/kg/injection, schedule: Q01DX001 (ip), vehicle: saline with Tween-80): 133 % of control
- T/C [1]: 149 % of control

Compound: CC1(C)C=C(C(=O)ON2C(=O)CCC2=O)C(C)(C)N1O
- survivor count [2]: 2 of 6

Compound: Cc1cn(CC2C=CC(CS[As](C)C)O2)c(=O)[nH]c1=O (stereo not given)
- survivor count (dose: 200.0 mg/kg/injection, schedule: Q01DX009 (ip), vehicle: distilled water + Tween-80): 2 of 6

Compound: c1ccc(CCN2CCC3(CC2)COCc2ccccc23)cc1
- survivor count (dose: 200.0 mg/kg/injection, schedule: Q01DX001 (ip), vehicle: saline with Tween-80): 0 of 6
- survivor count [1]: 0 of 6

Compound: O=C(NCc1ccco1)Nc1cccc2c(NC(=O)NCc3ccco3)cccc12
- survivor count [3]: 6 of 6
- survivor count [4]: 6 of 6

Compound: O=P1(O)OC[C@H]2CCC[C@@H]2O1
- survivor count (dose: 240.0 mg/kg/injection, schedule: Q01DX005 (ip), vehicle: saline): 2 of 6

Compound: CCC[CH2][Sn]1([CH2]CCC)[O]CCN2CCN(CC[O]1)CC2
- survivor count [3]: 0 of 6
- survivor count [4]: 0 of 6
- survivor count (dose: 240.0 mg/kg/injection, schedule: Q01DX005 (ip), vehicle: saline with Tween-80): 0 of 6

Compound: O=C(COc1cc(Cl)c(Cl)cc1Cl)OCCOc1cc(Cl)c(Cl)cc1Cl
- survivor count (dose: 100.0 mg/kg/injection, schedule: Q04DX003 (ip), vehicle: saline with Tween-80): 6 of 6
- survivor count (dose: 200.0 mg/kg/injection, schedule: Q04DX003 (ip), vehicle: saline with Tween-80): 6 of 6
- survivor count (dose: 400.0 mg/kg/injection, schedule: Q04DX003 (ip), vehicle: saline with Tween-80): 6 of 6

Compound: O=C(O)CCC(=O)c1ccc2ccc3cccc4ccc1c2c34
- survivor count (dose: 200.0 mg/kg/injection, schedule: Q01DX009 (ip), vehicle: saline with Tween-80): 0 of 6
- survivor count (dose: 400.0 mg/kg/injection, schedule: Q01DX009 (ip), vehicle: saline with Tween-80): 0 of 6

Compound: Cc1[nH]c2cc(Br)ccc2c1/C=N/NC(N)=S
- survivor count (dose: 200.0 mg/kg/injection, schedule: Q01DX001 (ip), vehicle: Klucel (hydroxypropylcellulose) (HPC)): 3 of 6
- survivor count (dose: 400.0 mg/kg/injection, schedule: Q01DX001 (ip), vehicle: Klucel (hydroxypropylcellulose) (HPC)): 1 of 6

Compound: CC(=O)Oc1cc(OC(C)=O)c2c(c1)C(=O)c1cc(C)cc(OC(C)=O)c1C2=O
- survivor count (dose: 200.0 mg/kg/injection, schedule: Q04DX002 (ip), vehicle: saline with Tween-80): 6 of 6
- survivor count (dose: 400.0 mg/kg/injection, schedule: Q04DX002 (ip), vehicle: saline with Tween-80): 6 of 6

Compound: Cc1cc2cc(C3CCNCC3)oc2cc1C
- survivor count (dose: 12.5 mg/kg/injection, schedule: Q01DX009 (ip), vehicle: Klucel (hydroxypropylcellulose) (HPC)): 5 of 6
- survivor count (dose: 100.0 mg/kg/injection, schedule: Q01DX009 (ip), vehicle: Klucel (hydroxypropylcellulose) (HPC)): 0 of 6
- survivor count [2]: 0 of 6

Compound: CC(=O)NC1C(OC(C)=O)OC(C[Se][As](C)C)C(OC(C)=O)C1OC(C)=O (stereo not given)
- survivor count [2]: 0 of 6
